These are yes or no findings as the source states them, for the method shown. Binding seen in cells or lysates may run through a third protein. For some assays here: Binding calls can cover weak binding; strength is not graded here. For some assays here: Sequences can lack the tags named with a protein. Values belong to the molecule of their own block, whether it stands above or below them.
Legend:
NME4-FLAG (human) = biological target: T1, NME4-FLAG (human) (UniProt O00746); test: co-IP; MDA-MB-231T cells transiently transfected, lysate (TEEN buffer: 50 mM Tris pH 7.4, 0.5% NP40, 150 mM NaCl, 5 mM EDTA), 200 µg input; pull-down with FLAG-agarose, overnight at 4 °C; Western blot
T1 sequence: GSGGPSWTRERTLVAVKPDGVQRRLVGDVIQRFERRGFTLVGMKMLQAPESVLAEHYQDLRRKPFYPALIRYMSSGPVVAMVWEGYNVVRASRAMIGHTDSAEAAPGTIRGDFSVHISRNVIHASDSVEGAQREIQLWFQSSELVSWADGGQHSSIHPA

NME3-FLAG (human) = biological target: T2, NME3-FLAG (human) (UniProt Q13232); test: as above
T2 sequence: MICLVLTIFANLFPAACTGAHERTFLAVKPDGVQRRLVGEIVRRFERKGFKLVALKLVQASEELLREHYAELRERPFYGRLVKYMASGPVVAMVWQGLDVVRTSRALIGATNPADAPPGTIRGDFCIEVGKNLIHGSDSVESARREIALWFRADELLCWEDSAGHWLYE

[1] = biological target: optic atrophy 1 (OPA1) (human (endogenous in MDA-MB-231T)); test: proximity ligation; in situ PLA (Duolink) on fixed, permeabilized MDA-MB-231T cells (Ctrl) or the clone KI-186-18 stably overexpressing NME6-186-FLAG; confocal microscopy
[2] = biological target: endogenous NME6 (human (endogenous in MDA-MB-231T)); test: co-IP; MDA-MB-231T lysate (TEEN buffer: 50 mM Tris pH 7.4, 0.5% NP40, 150 mM NaCl, 5 mM EDTA), 200 µg input; anti-NME1, anti-NME6 or anti-RCC1L on Dynabeads protein G, overnight at 4 °C; Western blot

- binding (NME4-FLAG (human)): no binding
- binding (NME3-FLAG (human)): no binding
Molecule: endogenous NME6 (human (endogenous in MDA-MB-231T))

- binding [1]: binds
B1: endogenous NME4 (protein, UniProt O00746 29-187)
chain: T1 sequence

- binding [2]: no binding
B2: NME4-FLAG (protein, UniProt O00746 29-187)
chain: T1 sequence

- binding [2]: no binding
B3: NME3-FLAG (protein, UniProt Q13232 1-169)
chain: T2 sequence

Source: paper PMC8597243
